These are yes or no findings as the source states them, for the method shown. A result given as binding can be weak or reduced; the word gives no strength. Tags and fused reporters may be left off the sequences shown.
Assays:
[1] = target: taxol-stabilised microtubules; assay: single-bead laser trap; motors non-specifically adsorbed to 550 nm polystyrene beads, steered to microtubules; 20 mM Pipes, 2 mM MgSO4, 1 mM ATP, 4 µM taxol; no hTpx2; both purified
[2] = target: taxol-stabilised microtubules; assay: single-bead laser trap; as the laser trap, after flow-in of assay buffer with 18 nM dimeric hTpx2; both purified

binding [1]: binds | binding [2]: binds
B1: Full-length human His6-Kif15 (protein, UniProt Q9NS87 1-1388)
chain: MAPGCKTELRSVTNGQSNQPSNEGDAIKVFVRIRPPAERSGSADGEQNLCLSVLSSTSLRLHSNPEPKTFTFDHVADVDTTQESVFATVAKSIVESCMSGYNGTIFAYGQTGSGKTFTMMGPSESDNFSHNLRGVIPRSFEYLFSLIDREKEKAGAGKSFLCKCSFIEIYNEQIYDLLDSASAGLYLREHIKKGVFVVGAVEQVVTSAAEAYQVLSGGWRNRRVASTSMNRESSRSHAVFTITIESMEKSNEIVNIRTSLLNLVDLAGSERQKDTHAEGMRLKEAGNINRSLSCLGQVITALVDVGNGKQRHVCYRDSKLTFLLRDSLGGNAKTAIIANVHPGSRCFGETLSTLNFAQRAKLIKNKAVVNEDTQGNVSQLQAEVKRLKEQLAELASGQTPPESFLTRDKKKTNYMEYFQEAMLFFKKSEQEKKSLIEKVTQLEDLTLKKEKFIQSNKMIVKFREDQIIRLEKLHKESRGGFLPEEQDRLLSELRNEIQTLREQIEHHPRVAKYAMENHSLREENRRLRLLEPVKRAQEMDAQTIAKLEKAFSEISGMEKSDKNQQGFSPKAQKEPCLFANTEKLKAQLLQIQTELNNSKQEYEEFKELTRKRQLELESELQSLQKANLNLENLLEATKACKRQEVSQLNKIHAETLKIITTPTKAYQLHSRPVPKLSPEMGSFGSLYTQNSSILDNDILNEPVPPEMNEQAFEAISEELRTVQEQMSALQAKLDEEEHKNLKLQQHVDKLEHHSTQMQELFSSERIDWTKQQEELLSQLNVLEKQLQETQTKNDFLKSEVHDLRVVLHSADKELSSVKLEYSSFKTNQEKEFNKLSERHMHVQLQLDNLRLENEKLLESKACLQDSYDNLQEIMKFEIDQLSRNLQNFKKENETLKSDLNNLMELLEAEKERNNKLSLQFEEDKENSSKEILKVLEAVRQEKQKETAKCEQQMAKVQKLEESLLATEKVISSLEKSRDSDKKVVADLMNQIQELRTSVCEKTETIDTLKQELKDINCKYNSALVDREESRVLIKKQEVDILDLKETLRLRILSEDIERDMLCEDLAHATEQLNMLTEASKKHSGLLQSAQEELTKKEALIQELQHKLNQKKEEVEQKKNEYNFKMRQLEHVMDSAAEDPQSPKTPPHFQTHLAKLLETQEQEIEDGRASKTSLEHLVTKLNEDREVKNAEILRMKEQLREMENLRLESQQLIEKNWLLQGQLDDIKRQKENSDQNHPDNQQLKNEQEESIKERLAKSKIVEEMLKMKADLEEVQSALYNKEMECLRMTDEVERTQTLESKAFQEKEQLRSKLEEMYEERERTSQEMEMLRKQVECLAEENGKLVGHQNLHQKIQYVVRLKKENVRLAEETEKLRAENVFLKEKKRSES

— article PMC3965211
